± gives the standard deviation of the averaged measurements. Some of the results follow. Most values come without repeats; read them as rough.

The subject of this assay is RAW 264.7 macrophages infected with S. aureus JE2-lux. Put plainly: host macrophage viability (CellTiter-Fluor) relative to DMSO vehicle; higher = more viable host cells. The settings on record: 10 µM; treatment time 4 h; gentamicin 50 µg/ml.
On to `CCOc1ccc(NC(=O)c2oc3ccccc3c2NC(=O)CC2CCCC2)cc1`, for which the host macrophage viability was 103 ± 2.8%.

Turning to `CCOC(=O)c1cccc(NC(=O)COc2ncnc3oc(C)c(C)c23)c1`, the host macrophage viability stood at 131%.

For the compound `Cc1c(C(=O)NC(C(=O)OC(C)(C)C)C(C)C)sc2ncn(C)c(=O)c12` (configuration not stated), the host macrophage viability turned out to be 99.8%.

With `CCc1nnsc1C(=O)Nc1ccc(S(N)(=O)=O)cc1`, the host macrophage viability stood at 108%.

On to `O=C(CS(=O)(=O)c1ccc(Cl)cc1)Nc1ccc2scnc2c1`, for which the host macrophage viability was 121%.

On to `Cc1cc2cc(C#N)c(SCC(=O)OCc3ccccc3)nc2cc1C`, for which the host macrophage viability was 121%.

In the case of `O=C(CSc1nc2ccccc2nc1-c1ccccc1)Nc1ccc2c(c1)OCO2`, the host macrophage viability turned out to be 102%.

With `CCCCN(C)C(=O)c1ccc(-c2cccc(F)c2)nc1`, the host macrophage viability is 104%.

In the case of `Cc1cc(NC(=O)CSc2nncc(=O)n2N)no1`, the host macrophage viability was determined as 117%.

In the case of `COc1ccccc1CNc1ncnc(N)c1[N+](=O)[O-]`, the host macrophage viability was found to be 112%.

Turning to `COc1ccc(Cl)cc1NC(=O)CN1C(=O)[C@@H]2CCCN2C(=O)c2ccccc21`, the host macrophage viability is 120%.

With `CCOc1ccc2ncc(S(=O)(=O)c3ccccc3)c(Nc3ccc(OC)c(OC)c3)c2c1`, the host macrophage viability came to 106%.

Consider `O=C(Nc1nnc(SCc2cccnc2)s1)C1CC(=O)N(c2ccccc2)C1` (configuration not stated), for which the host macrophage viability turned out to be 127%.

In the case of `CC(=O)c1ccc(/N=c2\oc3ccccc3cc2C(N)=O)cc1`, the host macrophage viability worked out at 119 ± 3.5%.

For `CC1Cc2nc(SCC(=O)Nc3ccc4c(c3)OCO4)n(Cc3ccccc3)c(=O)c2S1` (configuration not stated), the host macrophage viability was 109%.

With `CCCn1c(=S)[nH]c2cc(C(=O)NCc3ccccc3)ccc2c1=O`, the host macrophage viability amounted to 119%.

Consider `Nc1cc(-c2ccccc2)nn1-c1nc(-c2cccc(O)c2)cs1`, for which the host macrophage viability was determined as 96.4%.

Consider `Cc1cc(C)cc(NC(=O)C2CC3CCCN3C23C(=O)N(C)c2ccccc23)c1` (configuration not stated), for which the host macrophage viability worked out at 97.5%.

Consider `COCCCn1c(SCc2nc(-c3ccccc3)no2)nc2cc3c(cc2c1=O)OCO3`, for which the host macrophage viability turned out to be 127%.

As for `C=CCNc1nc2c(c(=O)n(C)c(=O)n2C)n1CC(=C)C`, the host macrophage viability worked out at 129%.

Regarding `Oc1ncnc2c1c(-c1ccccc1)cn2-c1cccc(Cl)c1`, the host macrophage viability was determined as 122%.

In the case of `COc1ccc(C(=O)CSc2nc(C)cc(=O)[nH]2)cc1OC`, the host macrophage viability is 104 ± 15%.

Turning to `Cc1ccc(SCCCC(=O)Nc2nc3ccc4sc(C)nc4c3s2)cc1`, the host macrophage viability is 131%.

On to `Cc1ccc(C(=O)NCCn2ccc(C)n2)c(N2CCN(CCO)CC2)n1`, for which the host macrophage viability was determined as 111%.

For the compound `COc1ccccc1/C=C/C1=NC(=C\c2coc3ccccc3c2=O)/C(=O)O1`, the host macrophage viability was found to be 113%.

`COc1ccccc1/N=c1\sc(C(C)=O)c(C)n1CCCN1CCOCC1`: the host macrophage viability is 113%.

For the compound `COc1ccc(C2NCCc3cc(O)c(O)cc32)cc1OC` (configuration not stated), the host macrophage viability is 129%.

Turning to `O=C(NCc1ccccc1)N1CCCC1c1nc(Cc2ccc(F)cc2)n[nH]1` (configuration not stated), the host macrophage viability was determined as 126%.

As to `COc1cc(C2c3sc(=O)[nH]c3SC3C4CCC(C4)C23)ccc1O` (configuration not stated), the host macrophage viability amounted to 109%.

`O=C(Nc1ccc(F)cc1F)c1nnc(C2CCN(S(=O)(=O)c3c[nH]cn3)CC2)s1`: the host macrophage viability is 114%.

Take `O=C(CCCc1nnc2c(=O)n(-c3ccc(Cl)cc3)ccn12)N1CCN(C2CCCCC2)CC1`: the host macrophage viability was 132%.

With `O=C(CSC1=N/C(=C/c2ccc3c(c2)OCO3)C(=O)N1c1ccccc1)c1ccccc1`, the host macrophage viability was determined as 117 ± 3%.

As to `O=C(CCN1CCOCC1)N/N=C/c1ccc(OC(=O)c2cccnc2)cc1`, the host macrophage viability was found to be 110 ± 6.1%.

In the case of `CSc1cccc2sc(Nc3ccccc3Cl)nc12`, the host macrophage viability was 121%.

With `Cc1ccc(-n2ncc3c(=O)n(CC(=O)NCc4ccccc4)cnc32)cc1`, the host macrophage viability is 112 ± 15%.

Regarding `O=C(CSc1nc2c(cnn2-c2ccccc2)c(=O)[nH]1)NCCc1ccccc1`, the host macrophage viability is 123%.

For `O=C(COc1ccc(Cl)cc1/C=C1\SC(=O)NC1=O)Nc1ccccc1`, the host macrophage viability came out at 119%.

For the compound `Cc1ccc(-c2csc(-c3cccn3CC(=O)N3CCCCCC3)n2)cc1`, the host macrophage viability is 91%.

Take `O=C(Nc1cccc2ccccc12)C1CCN(c2nnnn2-c2ccccc2)CC1`: the host macrophage viability was determined as 121%.

`COCCn1c(C)cc(O)c(C(c2ccncc2)N2CCC(C)CC2)c1=O` (configuration not stated): the host macrophage viability came to 116%.

In the case of `CC(Oc1ccccc1)C(=O)N1CCC2(CC1)CC(=O)c1ccccc1O2` (configuration not stated), the host macrophage viability is 106%.

On to `NC(=O)c1cc2c(ccc3ccccc32)o/c1=N\NC(=O)c1ccccc1`, for which the host macrophage viability was determined as 146%.

Take `Cc1cc(C)nc(SCc2cc(=O)c(OC(=O)c3ccc4c(c3)OCO4)co2)n1`: the host macrophage viability is 120%.

Take `O=C1CC(c2cccc(F)c2)Sc2nc3ccccc3n21` (configuration not stated): the host macrophage viability was 104%.

In the case of `N#CCn1ccn(-c2ccc3c(c2)OCO3)c(=O)c1=O`, the host macrophage viability stood at 127%.

For `O=C(NCc1ccc2c(c1)OCO2)c1c(O)nc2sccn2c1=O`, the host macrophage viability was found to be 108%.

Regarding `Cc1ccc(NC(=O)CN2CCC(C(=O)c3ccc4c(c3)OCCO4)CC2)cc1Cl`, the host macrophage viability came out at 123%.

With `CC(C)c1ccc2nc(SCC(=O)NC3CCCC3)c(C#N)cc2c1`, the host macrophage viability is 119%.

Take `O=C(NNc1nc2c(Cl)cccc2s1)c1cc(=O)c2ccccc2o1`: the host macrophage viability turned out to be 107 ± 4.3%.

Regarding `CC(=O)c1c(C)oc2ccc(NS(=O)(=O)c3cc4c5c(cccc5c3)C(=O)NC4=O)cc12`, the host macrophage viability amounted to 110%.

Regarding `CCc1nc2ccc(NC(=O)C3(C)CC(=O)N=C4C=C(C)C=CN43)cc2[nH]1` (configuration not stated), the host macrophage viability was determined as 110%.

As to `CC/N=C1/SC(CC(=O)Nc2sc(CC)cc2C(=O)OCC)C(=O)N1CC` (configuration not stated), the host macrophage viability was determined as 116%.

For the origin of these results see the supplement of paper PMC12578635.
